Some entries share one result that the patent states for a list of compounds.
Test system: A431 cells
Experiment: Antibody-dependent cell-mediated cytotoxicity (51Cr release)
Format: cell-based, human
Settings: 10 μg/mL, PBMC effector to target ratio 100:1
Description: The ability of anti-AXL antibodies to induce ADCC of A431 epidermoid carcinoma cells was determined as explained below. As effector cells, peripheral blood mononuclear cells from healthy volunteers (UMC Utrecht, The Netherlands) were used.
A431 cells were collected (5×10^6 cells) in culture medium (RPMI 1640 culture medium supplemented with 10% fetal calf serum (FSC)), to which 100 μCi ^51Cr (Chromium-51; Amersham Biosciences Europe GmbH, Roosendaal, The Netherlands) had been added, and the mixture was incubated in a 37° C. water bath for 1 hour (hr) while shaking. After washing of the cells (twice in PBS, 1200 rpm, 5 min), the cells were resuspended in RPMI1640/10% FSC and counted by trypan blue exclusion. […]
Peripheral blood mononuclear cells (healthy volunteers, UMC Utrecht, Utrecht, The Netherlands) were isolated from 45 mL of freshly drawn heparin blood by Ficoll (Bio Whittaker; lymphocyte separation medium, cat 17-829E) according to the manufacturer's instructions. After resuspension of cells in RPMI1640/10% FSC, cells were counted by trypan blue exclusion and diluted to a density of 1×10^7 cells/mL.
50 μl of ^51Cr-labeled targets cells were pipetted into 96-well plates, and 50 μl of antibody were added, diluted in RPMI1640/10% FSC (3-fold dilutions at final concentrations range 0.01-10 μg/mL). […] The percentage specific lysis was calculated as follows: […]

Row | Molecule | ADCC (% specific lysis) [%]
1 | IgG1-AXL-183-N52Q: point mutant of IgG1-AXL-183, VH SEQ ID NO:17, VL SEQ ID NO:18 (antibody, V domains shown, homo sapiens) VH: QVQLQQWGAGLLKPSETLSLTCAVYGGSFSGYYWSWIRQPPGKGLEWIGEIQQSGSTNYNPSLKSRVTISVDTSKNQFSLKLSSVTAADTSVYYCASGNWDHFFDYWGQGTLVTVSS VL: DIQMTQSPSSVSASVGDRVTITCRASQGISSWLAWYQHKPGKAPKLLIYATSSLQSGVTSRFSGSGSGTDFTLTISSLQPEDFATYYCQQAKSFPWTFGQGTKVEIK | 15 to 21
2 | IgG1-AXL-733: human IgG1,κ anti-AXL antibody, VH SEQ ID NO:34, VL SEQ ID NO:35; FN1 domain binding (antibody, V domains shown, homo sapiens) VH: QVQLVESGGGVVQPGRSLRLSCAASGFSFSTYAMHWVRQAPGKGLEWVAVISYDGDNKYSADSVKGRFTISRDNSKNTLYLQMNSLRAEDTAVYYCARGRKLGIDAFDIWGQGTMVTVSS VL: AIQLTQSPSSLSASVGDRVTITCRASQGISSALAWYQQKPGKAPKLLIYDASSLESGVPSRFSGSGSGTDFTLTISGLQPEDFATYYCQQFNSYPFTFGPGTKVDIK | 15 to 21

— patent US20200397913A1, “AXL-SPECIFIC ANTIBODY-DRUG CONJUGATES FOR CANCER TREATMENT” (GENMAB A/S, priority 2015, published 2020)
